Data taken from patent publication US20030129222A1, “Liposomal imexon” (priority 2000, published 2003).
pIC50: −log10 of the molar value. Some results were stated once for a whole list of compounds, not compound by compound. At least one structure is not confirmed: it was looked up by name or label, or the drawing left a doubt.

Tested on: panel of tumor cells in culture
Experiment: Panel of tumor cell cultures (all lines of Table 3)
Type: cell-based, human, murine
Settings: all cell lines of Table 3; read-out: IC50 values for all of the tumor cell types
From the text: A set of twenty 2-cyanoaziridine-1-carboxamides was synthesized from 2-cyanoaziridine and appropriate isocyanates. […] It is contemplated that one or more of these 2-cyanoaziridine-1-carboxamides derivatives may be used in combination with a lipid and/or another agent.

Structure (SMILES)	pIC50
CCOC(=O)c1ccc(NC(=O)N2CC2C#N)cc1 (stereo not shown) [Compound 19, 2-Cyanoaziridine-1-[N-(4-ethoxycarbonylphenyl)]carboxamide]	> 5.00
N#CC1CN1C(=O)Nc1ccc([N+](=O)[O-])cc1 (stereo not shown) [Compound 16, 2-Cyanoaziridine-1-[N-(4-nitrophenyl)]carboxamide]	> 5.00
N#CC1CN1C(=O)Nc1cccc2ccccc12 (stereo not shown) [Compound 23, 2-Cyanoaziridine-1-[N-(1-naphthyl)]carboxamide]	> 5.00
N#CC1CN1C(=O)Nc1ccc(F)cc1 (stereo not shown) [Compound 14, 2-Cyanoaziridine-1-[N-(4-fluorophenyl)]carboxamide]	> 5.00
